For this experiment, the target named is T1, GST-YxxQ (307-545), recombinant CoAA YxxQ repeats (human) (UniProt Q96PK6).
T1 sequence: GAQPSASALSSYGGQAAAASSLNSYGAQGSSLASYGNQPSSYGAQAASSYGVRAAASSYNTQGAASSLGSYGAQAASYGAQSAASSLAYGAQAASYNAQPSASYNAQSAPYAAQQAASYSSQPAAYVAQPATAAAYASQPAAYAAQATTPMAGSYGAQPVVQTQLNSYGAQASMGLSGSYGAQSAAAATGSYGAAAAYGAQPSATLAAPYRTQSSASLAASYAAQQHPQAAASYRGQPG
As to the kind of experiment: affinity purification with mass spectrometry.

These are yes or no findings as the source states them, for the method shown. Binding seen in cells or lysates may run through a third protein. A yes stands for co-enrichment or nearness to the bait. Other partners may have been found. Where a sequence is shown, tags or fusion partners need not be part of it.

B1: hnRNP M1 (alternatively spliced isoform of hnRNP M) (protein, UniProt P52272-2 1-691)
chain: MAAGVEAAAEVAATEIKMEEESGAPGVPSGNGAPGPKGEGERPAQNEKRKEKNIKRGGNRFEPYANPTKRYRAFITNIPFDVKWQSLKDLVKEKVGEVTYVELLMDAEGKSRGCAVVEFKMEESMKKAAEVLNKHSLSGRPLKVKEDPDGEHARRAMQKAGRLGSTVFVANLDYKVGWKKLKEVFSMAGVVVRADILEDKDGKSRGIGTVTFEQSIEAVQAISMFNGQLLFDRPMHVKMDERALPKGDFFPPERPQQLPHGLGGIGMGLGPGGQPIDANHLNKGIGMGNIGPAGMGMEGIGFGINKMGGMEGPFGGGMENMGRFGSGMNMGRINEILSNALKRGEIIAKQGGGGGGGSVPGIERMGPGIDRLGGAGMERMGAGLGHGMDRVGSEIERMGLVMDRMGSVERMGSGIERMGPLGLDHMASSIERMGQTMERIGSGVERMGAGMGFGLERMAAPIDRVGQTIERMGSGVERMGPAIERMGLSMERMVPAGMGAGLERMGPVMDRMATGLERMGANNLERMGLERMGANSLERMGLERMGANSLERMGPAMGPALGAGIERMGLAMGGGGGASFDRAIEMERGNFGGSFAGSFGGAGGHAPGVARKACQIFVRNLPFDFTWKMLKDKFNECGHVLYADIKMENGKSKGCGVVKFESPEVAERACRMMNGMKLSGREIDVRIDRNA
For the molecule B1, the binding result is given as “binds”.

B2: heterogeneous ribonucleoprotein hnRNP M (protein, UniProt P52272 1-730)
chain: MAAGVEAAAEVAATEIKMEEESGAPGVPSGNGAPGPKGEGERPAQNEKRKEKNIKRGGNRFEPYANPTKRYRAFITNIPFDVKWQSLKDLVKEKVGEVTYVELLMDAEGKSRGCAVVEFKMEESMKKAAEVLNKHSLSGRPLKVKEDPDGEHARRAMQKVMATTGGMGMGPGGPGMITIPPSILNNPNIPNEIIHALQAGRLGSTVFVANLDYKVGWKKLKEVFSMAGVVVRADILEDKDGKSRGIGTVTFEQSIEAVQAISMFNGQLLFDRPMHVKMDERALPKGDFFPPERPQQLPHGLGGIGMGLGPGGQPIDANHLNKGIGMGNIGPAGMGMEGIGFGINKMGGMEGPFGGGMENMGRFGSGMNMGRINEILSNALKRGEIIAKQGGGGGGGSVPGIERMGPGIDRLGGAGMERMGAGLGHGMDRVGSEIERMGLVMDRMGSVERMGSGIERMGPLGLDHMASSIERMGQTMERIGSGVERMGAGMGFGLERMAAPIDRVGQTIERMGSGVERMGPAIERMGLSMERMVPAGMGAGLERMGPVMDRMATGLERMGANNLERMGLERMGANSLERMGLERMGANSLERMGPAMGPALGAGIERMGLAMGGGGGASFDRAIEMERGNFGGSFAGSFGGAGGHAPGVARKACQIFVRNLPFDFTWKMLKDKFNECGHVLYADIKMENGKSKGCGVVKFESPEVAERACRMMNGMKLSGREIDVRIDRNA
Take B2: the binding result is listed as “binds”.

The values are drawn from doi:10.1101/671156.
